This note sets out measurements from PubChem BioAssay AID188 (DTP/NCI, 2004).

This assay has as its system CD2F1 mice, nontumored, toxicity/survival. Nature of the assay: NCI In Vivo Anticancer Drug Screen. Data for tumor model Nontumored Animals (Toxicity Test) in CD2F1 (CDF1) mice.
Setting [1] is: dose: 1.0 mg/kg/injection, schedule: Q01DX001 (ip), vehicle: DMSO.
Where [2] appears, read: dose: 10.0 mg/kg/injection, schedule: Q01DX001 (ip), vehicle: DMSO.
Where [3] appears, read: dose: 100.0 mg/kg/injection, schedule: Q01DX001 (ip), vehicle: DMSO.
Where [4] appears, read: dose: 1.0 mg/kg/injection, schedule: Q01DX009 (ip), vehicle: saline.

Each structure is given as a SMILES string. Shown are survivors of the treated group in tumour-free mice. Survivors were counted at the toxicity check, usually on the fifth day, unless a day is given; later deaths do not show. Schedules are NCI's codes, read here as Q, the interval in days (D) or hours (H), X, the number of doses. Some doses were run more than once; the values are given in rising order.

Take `CC(=O)Nc1nc(Br)c2ccccc2c1-c1ccc(N)cc1`: the survivor count reads like this: under setting [1], 2 of 2; under setting [2], 2 of 2; under setting [3], 2 of 2.

For the molecule `CC(=O)Nc1ncc2ccccc2c1-c1ccc(NC(=O)CN(CCCl)CCCl)cc1`, the survivor count under setting [1] is 2 of 2; the survivor count (dose: 1.0 mg/kg/injection, schedule: Q01DX001 (ip), vehicle: olive oil, sesame oil, peanut oil) is reported as 2 of 2; the survivor count under setting [2] was 2 of 2; the survivor count (dose: 10.0 mg/kg/injection, schedule: Q01DX001 (ip), vehicle: olive oil, sesame oil, peanut oil) was 2 of 2; the survivor count under setting [3] was 2 of 2; the survivor count (dose: 100.0 mg/kg/injection, schedule: Q01DX001 (ip), vehicle: olive oil, sesame oil, peanut oil) is listed as 2 of 2.

With `COc1ccc2c(c1OC(C)=O)-c1cc(OC(C)=O)cc3c1C(C2)N(C)CC3` (stereo unspecified), the survivor count reads like this: under setting [1], 2 of 2; under setting [2], 2 of 2; under setting [3], 2 of 2.

On to `CC[C@]1(O)C[C@H]2CN(CCc3c([nH]c4ccccc34)[C@@](C(=O)OC)(c3cc4c(cc3OC)N(C=O)[C@H]3[C@@](O)(C(=O)OC)[C@H](OC(C)=O)[C@]5(CC)C=CCN6CC[C@]43[C@@H]65)C2)C1`, for which the survivor count runs as follows: (dose: 0.13 mg/kg/injection, schedule: Q04DX003 (ip), vehicle: saline) 5 of 5; (dose: 0.25 mg/kg/injection, schedule: Q04DX003 (ip), vehicle: saline) 4 of 4 and 5 of 5; (dose: 0.37 mg/kg/injection, schedule: Q04DX002 (ip), vehicle: saline) 4 of 4; (dose: 0.5 mg/kg/injection, schedule: Q04DX003 (ip), vehicle: saline) 4 of 4 and 5 of 5; (dose: 0.75 mg/kg/injection, schedule: Q04DX002 (ip), vehicle: saline) 4 of 4; under setting [4], 10 of 10. The survivor count is, setting by setting: (dose: 1.0 mg/kg/injection, schedule: Q04DX003 (ip), vehicle: saline) 10 of 10, 4 of 4, 5 of 5, 9 of 9; (dose: 1.5 mg/kg/injection, schedule: Q01DX009 (ip), vehicle: saline) 10 of 10; (dose: 1.5 mg/kg/injection, schedule: Q04DX002 (ip), vehicle: saline) 4 of 4; (dose: 1.5 mg/kg/injection, schedule: Q04DX003 (ip), vehicle: saline) 10 of 10; (dose: 2.0 mg/kg/injection, schedule: Q04DX003 (ip), vehicle: saline) 4 of 4 and 5 of 5; (dose: 3.0 mg/kg/injection, schedule: Q04DX002 (ip), vehicle: saline) 4 of 4. In addition, the survivor count (dose: 4.0 mg/kg/injection, schedule: Q04DX003 (ip), vehicle: saline) is given as 4 of 4.

As for `CC(=O)Nc1ncc2ccccc2c1-c1ccc(N(CCO)CCO)cc1`, the survivor count is, setting by setting: under setting [1], 2 of 2; under setting [2], 2 of 2; under setting [3], 2 of 2.

For the molecule `OCC1OC(n2cnc3c2NC=NC[C@H]3O)CC1O` (stereo partly specified), the survivor count reads like this: (dose: 0.1 mg/kg/injection, schedule: Q03HX024 (ip), vehicle: clinical formulation) 5 of 5; (dose: 0.1 mg/kg/injection, schedule: Q03HX024 (ip), vehicle: water) 5 of 5; (dose: 0.2 mg/kg/injection, schedule: Q03HX024 (ip), vehicle: clinical formulation) 5 of 5; (dose: 0.2 mg/kg/injection, schedule: Q03HX024 (ip), vehicle: water) 5 of 5; (dose: 0.25 mg/kg/injection, schedule: Q01DX009 (ip), vehicle: saline) 10 of 10; (dose: 0.5 mg/kg/injection, schedule: Q01DX009 (ip), vehicle: saline) 10 of 10. Also, the survivor count reads like this: (dose: 0.63 mg/kg/injection, schedule: Q04DX002 (ip), vehicle: saline) 10 of 10; under setting [4], 10 of 10; (dose: 1.25 mg/kg/injection, schedule: Q04DX002 (ip), vehicle: saline) 10 of 10; (dose: 2.0 mg/kg/injection, schedule: Q01DX009 (ip), vehicle: saline) 10 of 10; (dose: 2.5 mg/kg/injection, schedule: Q04DX002 (ip), vehicle: saline) 10 of 10; (dose: 5.0 mg/kg/injection, schedule: Q04DX002 (ip), vehicle: saline) 10 of 10. Further, the survivor count (dose: 10.0 mg/kg/injection, schedule: Q04DX002 (ip), vehicle: saline) was 10 of 10.
